Results taken from patent publication US6379658B1, “Human sweat malodor counteractant composition and process for using same” (International Flavors & Fragrances Inc., priority 1999, dated 2002).

Assay: Cloth substantivity (Launder-O-Meter washed fabric, odor intensity rated by trained panel)
Details: single fragrance ingredient

SMILES | Substantivity (Time [Hours]) [h]
CC(=O)CCc1ccccc1 [Benzyl acetone, benzyl acetone] | 24
CC(=O)c1ccc2ccccc2c1 [Methyl β-naphthalene ketone, methyl β-naphthyl ketone] | 24
COc1ccc2ccccc2c1 [β-Naphthyl methyl ether, β-naphthyl methyl ether] | 24
CC(=O)C(C)=CC1C(C)=CCCC1(C)C (stereo not shown) [γ-Methyl ionone, 4-(2,6,6-trimethyl-2-cyclohexen-1-yl)-3-methyl-3-buten-2-one] | 24
